Measurements reported in PubChem BioAssay AID504467 (National Center for Advancing Translational Sciences (NCATS), 2011).
Out of some 330,000 compounds screened, about 7,700 (2.3%) were called active. The inconclusive results got no clear call from the source; some entries with a clear call stand among them for comparison. Calls come from the whole dose curve; as a rule, active = well fitted inhibition curve with a large enough effect; inconclusive = small, poorly fitted or top-dose-only effect, or effect the other way; inactive = flat fitted curve, though single readings scatter. Potencies of inconclusive entries are doubtful fits and often do not repeat.

assay: qHTS screen for small molecules that inhibit ELG1-dependent DNA repair in human embryonic kidney (HEK293T) cells expressing luciferase-tagged ELG1; settings: HEK293T ELG1-luciferase reporter, luminescence, 16 h, DNA damage induced by 5-fluorouridine; series mostly up to 46.1 µM; note: nearly all actives have a fitted effect of over 55% in size
Method in brief: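 Quantitative HTS, concentration-response format. 2,000 cells/well co-treated with 5-fluorouridine and compound, 16 hr in 5% CO2 at 37 °C; ONE-Glo luminescence read after 30 min.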
Potency is the fitted concentration of half-maximal effect.

Structure (SMILES)	Potency
CC1CCCN(C(=O)C(C)Nc2cc(Cl)ccc2N2CCOCC2)C1 (stereo unspecified)	inconclusive: 25.9 µM [inhibitor, single point]
Cc1ccccc1N1C(=O)CN(Cc2sccc2C)C1=S	inactive
O=c1c(N2CCOCC2)c(N2CCOCC2)c1=O	inactive
Cc1cccn2c(=O)c(C=O)c(Cl)nc12	inconclusive: 20.6 µM [activator, partial curve]
Cc1cc(N2CCOCC2)nc2ccccc12	inconclusive: 18.4 µM [activator, single point]
CC1=C(C(=O)Nc2cccc(C(=O)NCc3ccccc3C)c2)SCCO1	inactive
CCCCc1cc(=O)oc2cc(C)cc(OCC(=O)N3CCC(C(=O)O)CC3)c12	inactive
COc1ccccc1CN1CC(C(=O)N2CCOCC2)CCC1=O (stereo unspecified)	inconclusive: 16.4 µM [activator, partial curve]
CC(C)c1ccc(C(=O)NNC(=O)C2C3CCC(C3)C2C(=O)O)cc1 (stereo unspecified)	inconclusive: 9.2 µM [activator, partial curve]
CC(C)OCCCn1c(=O)c2ccccc2n2c(CCC(=O)O)nnc12	inactive
Cc1cccc(C)c1NC(=S)N1CCCN(Cc2ccc(F)cc2)C1	inconclusive: 4.61 µM [activator, single point]
O=C(O)CC1(CC(=O)Nc2cc(C(F)(F)F)cc(C(F)(F)F)c2)CCCCC1	inconclusive: 11.6 µM [inhibitor, partial curve, poor fit]
COc1ccc(C2CC(c3ccc(OC)cc3)n3nc(NS(C)(=O)=O)nc3N2)cc1 (stereo unspecified)	inactive
COc1cccc(NC(=O)c2ccnc(N3CCC(C(=O)NCc4cc(OC)ccc4OC)CC3)c2)c1	inconclusive: 20.6 µM [inhibitor, single point]
COc1cc2ncnc(NCc3ccc(C)cc3)c2cc1OC	inconclusive: 10.3 µM [inhibitor, partial curve]
O=C1ON=C(c2ccccc2)/C1=C/c1ccco1	inconclusive: 29.1 µM [activator, single point]
CC(C)(C)n1nnnc1C(c1cc2cc3c(cc2[nH]c1=O)OCCO3)N1CCSCC1 (stereo unspecified)	inactive
CCS(=O)(=O)N1CCN(c2nc(-c3ccccc3)cs2)CC1	inconclusive: 6.51 µM [activator, single point]
COc1ccc(N2C(=O)CSC2c2ccccc2[N+](=O)[O-])cc1 (stereo unspecified)	inactive
CN1CCc2ccccc2C1Cc1ccccc1NC(=O)c1sc2ccccc2c1Cl (stereo unspecified)	inconclusive: 29.1 µM [inhibitor, single point]
COc1ccc(/C=C\c2onc(C)c2S(=O)(=O)N2CCC(C(=O)NCCC(C)C)CC2)cc1	inactive

A run of entries taken from the entries so far:
Structure (SMILES)	Potency
COc1ccc(C2CC(c3ccc(OC)cc3)n3nc(NS(C)(=O)=O)nc3N2)cc1 (stereo unspecified)	inactive
COc1cccc(NC(=O)c2ccnc(N3CCC(C(=O)NCc4cc(OC)ccc4OC)CC3)c2)c1	inconclusive: 20.6 µM [inhibitor, single point]
